# The supplement of paper PMC3334620
# In all, about 33,000 sequences were measured (“E-score (-0.5 to 0.5)”: median about -8e-05, highest 2% from about 0.23 on). The list shows a part of the results.
# Target: T1, Nrg2 (UniProt P38082)
# T1 sequence: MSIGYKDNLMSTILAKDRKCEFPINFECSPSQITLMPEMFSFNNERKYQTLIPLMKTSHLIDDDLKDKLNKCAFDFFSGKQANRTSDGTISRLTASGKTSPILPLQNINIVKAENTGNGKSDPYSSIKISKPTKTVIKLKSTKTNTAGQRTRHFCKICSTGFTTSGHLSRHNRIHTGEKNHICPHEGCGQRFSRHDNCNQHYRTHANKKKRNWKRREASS
# Assay: PBM E-score (8-mer binding enrichment) (E-score (-0.5 to 0.5)); higher = stronger / more preferred TF binding
# Conditions: protein concentration: 100 nM; construct: GST-full length
# Outline: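 GST-tagged yeast TFs (full-length or DNA-binding domain) were made by PURExpress in vitro transcription/translation and applied at about 100-200 nM to universal all-10-mer Agilent arrays. The arrays were made double-stranded by primer extension, on fresh or once-stripped slides. Bound protein was detected with fluorescent anti-GST, and scans were normalised with masliner. Each ungapped eight-base word, pooled with its reverse complement, received an E-score (modified Wilcoxon-Mann-Whitney statistic) from the Universal PBM Analysis Suite.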
row,Sequence,PBM E-score
1,ATAAGATC,0.00507
2,CACAACCG,0.163
3,CAGATCCC,-0.0225
4,CTACTTGA,0.0491
5,ATGTGGAC,-0.0186
6,ATGGACGA,0.0668
7,GCTCTAGA,-0.119
8,GTGGCGTA,-0.0871
9,TCGACCAA,-0.0185
10,TATTCCAA,0.0202
11,CTGTTACC,-0.11
12,GCGTAGAC,-0.102
13,ATGTTGTG,0.0966
14,ACCGGCGC,0.122
15,ACCGCCAA,0.00879
16,AGGAACTG,0.0301
17,CATTCTTA,0.134
18,ACTTCGAC,-0.0444
19,CGCCAAAA,0.119
20,ATCCAAGA,-0.0224
21,CTCTGATC,-0.127
22,CATGCTGG,-0.0773
23,ACTCCGCG,-0.0414
24,GTGGAATA,-0.013
25,ACGACAGA,0.0203

row,Sequence,PBM E-score
1,GACGAGCA,0.0439
2,TGAGATAA,0.211
3,CTGTGTGC,-0.148
4,CACAGGAG,-0.043
5,CTCGAACC,0.0779
6,CGTGCCCC,-0.186
7,CGCTACGA,0.0756
8,TAACAGTA,0.175
9,TCAAAGCA,-0.00085
10,AACACAAA,0.103
11,CATTGTCG,-0.0489
12,ACGTTACT,0.0291
13,ACAGTCAA,-0.00256
14,AGAGTAAA,0.0187
15,GCGAGCTA,0.158
16,GGACGCAA,0.0616
17,ATAGTAAC,0.074
18,ATGCGTCC,0.0719
19,ACGCACGA,0.171
20,CAGGCTAG,-0.209
21,ATAGTTCG,0.0661
22,CTGTGAAA,0.142
23,AAATTCCT,-0.096
24,CGTGTCAG,0.041
25,ATATACAT,0.108

row,Sequence,PBM E-score
1,CCTCCAGC,-0.372
2,GAAACTAC,0.0746
3,CTTGTTCC,-0.0907
4,CATTGTAG,0.106
5,ACGACCTC,0.152
6,AGGTATTG,0.155
7,ATTGTTTA,0.0336
8,GAACACTA,0.0307
9,GCACAGAA,0.0161
10,CATACCAA,-0.00757
11,CTGCGTTC,0.223
12,CCGGAGTA,0.078
13,ACTGGGAC,0.00152
14,AGACGATC,-0.128
15,AACAACGT,-0.024
16,GCACAGCA,0.00454
17,ATCGTCTG,-0.046
18,CCCGCGGG,0.278
19,GGACCGTA,-0.397
20,ACGTGCCA,-0.0385
21,GGCGGCCA,-0.0452
22,ATTTACGC,-0.0575
23,ATATTCGG,0.00862
24,TATACTAA,0.0368
25,AGTTGAGA,0.00277

# 39 neighbouring records out of the list so far, for reference:
row,Sequence,PBM E-score
25,ACGACAGA,0.0203
1,GACGAGCA,0.0439
2,TGAGATAA,0.211
3,CTGTGTGC,-0.148
4,CACAGGAG,-0.043
5,CTCGAACC,0.0779
6,CGTGCCCC,-0.186
7,CGCTACGA,0.0756
8,TAACAGTA,0.175
9,TCAAAGCA,-0.00085
10,AACACAAA,0.103
11,CATTGTCG,-0.0489
12,ACGTTACT,0.0291
13,ACAGTCAA,-0.00256
14,AGAGTAAA,0.0187
15,GCGAGCTA,0.158
16,GGACGCAA,0.0616
17,ATAGTAAC,0.074
18,ATGCGTCC,0.0719
19,ACGCACGA,0.171
20,CAGGCTAG,-0.209
21,ATAGTTCG,0.0661
22,CTGTGAAA,0.142
23,AAATTCCT,-0.096
24,CGTGTCAG,0.041
25,ATATACAT,0.108
1,CCTCCAGC,-0.372
2,GAAACTAC,0.0746
3,CTTGTTCC,-0.0907
4,CATTGTAG,0.106
5,ACGACCTC,0.152
6,AGGTATTG,0.155
7,ATTGTTTA,0.0336
8,GAACACTA,0.0307
9,GCACAGAA,0.0161
10,CATACCAA,-0.00757
11,CTGCGTTC,0.223
12,CCGGAGTA,0.078
13,ACTGGGAC,0.00152

# The listing continues.

row,Sequence,PBM E-score
1,GCTTGCTA,-0.0547
2,CGCACACA,0.0421
3,AAGTTTCA,0.149
4,CGTCAGTC,-0.0763
5,GGCGCCAA,0.133
6,ACCGACAG,0.138
7,ACCGAGTC,-0.254
8,ACTATATA,0.23
9,CCCGACCC,-0.00871
10,CTGATAAA,0.199
11,GATAGCCA,-0.168
12,AGGCCCAG,-0.183
13,CATGCTAC,-0.139
14,AAAAGTAA,0.106
15,ACTGCCTA,-0.113
16,CCACCTCG,-0.154
17,ACATCCAG,0.102
18,AGGTGAAT,0.102
19,CGATAGCC,-0.0571
20,CCGAAAGG,0.0391
21,CACGACGG,0.153
22,CCTGTTCG,-0.00968
23,AACTTCAT,0.0274
24,GGGATTCA,0.0409
25,TGTATGAA,-0.0766

row,Sequence,PBM E-score
1,CTCGTATA,-0.0578
2,CCAATGCA,0.0514
3,AGAGAAAC,0.0693
4,AGAACCCC,-0.0592
5,TAACGTCA,0.0193
6,CTGGGGCA,-0.0148
7,GCGAGAAA,0.0215
8,AACCGGCC,-0.0812
9,GTGACTGA,0.0434
10,GTAAACGA,-0.165
11,AAGGCGCA,0.125
12,CAATGAGG,-0.231
13,AGTGCTAT,-0.0367
14,CAATAGGC,-0.108
15,CTGTATGC,-0.1
16,GGGGGGAA,-0.341
17,GAAAGATC,0.121
18,GAGGGGCA,-0.303
19,GGAAGGTA,-0.205
20,GAGTAACC,0.104
21,CTAAGCGA,-0.0474
22,ATGACTAC,-0.0387
23,GCGCAGCA,-0.286
24,GCTCCTAC,-0.0957
25,CCAGTAAG,-0.099

row,Sequence,PBM E-score
1,ACGTCCCA,-0.223
2,AGCTAGGC,-0.0507
3,CATGTCGC,-0.0964
4,GGTACGGA,-0.0693
5,AGGGTAGA,-0.0601
6,ACTGCGAA,-0.122
7,CGCCAACG,-0.0977
8,ACAAGATA,0.103
9,AGCCCCCG,-0.407
10,GGACGGAA,-0.0899
11,GGTTGCCA,-0.00492
12,GCAGCGAC,-0.177
13,ACTGGCGC,0.135
14,CCCTTCTA,-0.0766
15,CGCGGACG,-0.043
16,AGCCGCCT,0.0028
17,GGCACAGA,-0.13
18,ACTCTGAT,0.0459
19,GCTATCCC,-0.138
20,ACGCTTTG,-0.124
21,AGCGTAAG,-0.0617
22,AAGCAAAT,-0.018
23,AGGACCAG,-0.0763
24,ATCACGAG,-0.242
25,CAGCCTAG,0.0198

row,Sequence,PBM E-score
1,ATCGTTGC,-0.115
2,ATTGAACG,-0.0983
3,CTGGTAAA,-0.0859
4,ACCGTGGC,-0.107
5,AATCAAAG,-0.0867
6,ATGATGAC,0.0196
7,CAGGGCTA,-0.0464
8,AACACATG,0.169
9,CTCAGCAA,0.0227
10,AATTAAAG,0.129
11,AGTCTATA,-0.136
12,ACATTCCG,0.00186
13,GACGGCGA,-0.131
14,AACGAAGT,-0.0818
15,AAGCGAAA,0.123
16,CGCGCGAA,0.157
17,CCAGGAAA,0.183
18,AGAACGCG,0.189
19,ACCATCTG,-0.0508
20,CCTTCCTA,-0.318
21,CCACTGTC,0.0103
22,AGTTAAAG,0.0216
